These are yes or no findings as the source states them, for the method shown. Some binding calls cover weakened binding; strength is not graded here.
Target: TIP60 (histone acetyltransferase) (UniProt Q92993)
Assay: immunoprecipitation from HeLa cells and yeast two-hybrid tests

Amino acid sequences for entries named in this document (tags omitted). A change or cut given only in a name is not applied to a line headed by its entry.
UniProt Q92993: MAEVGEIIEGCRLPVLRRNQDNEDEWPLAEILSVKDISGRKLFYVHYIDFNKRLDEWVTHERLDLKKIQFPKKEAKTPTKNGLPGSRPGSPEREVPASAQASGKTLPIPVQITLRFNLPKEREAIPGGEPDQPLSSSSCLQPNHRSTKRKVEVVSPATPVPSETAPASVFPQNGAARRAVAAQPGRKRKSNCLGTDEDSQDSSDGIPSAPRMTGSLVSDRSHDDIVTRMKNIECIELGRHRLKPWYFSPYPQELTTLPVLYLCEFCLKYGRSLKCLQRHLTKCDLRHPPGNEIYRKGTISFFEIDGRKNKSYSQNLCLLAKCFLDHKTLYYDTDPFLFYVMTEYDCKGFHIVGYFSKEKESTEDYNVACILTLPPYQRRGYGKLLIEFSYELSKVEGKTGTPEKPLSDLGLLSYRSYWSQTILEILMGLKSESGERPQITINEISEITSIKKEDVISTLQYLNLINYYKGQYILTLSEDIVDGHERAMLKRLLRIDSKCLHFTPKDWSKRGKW
UniProt Q9Y6K9: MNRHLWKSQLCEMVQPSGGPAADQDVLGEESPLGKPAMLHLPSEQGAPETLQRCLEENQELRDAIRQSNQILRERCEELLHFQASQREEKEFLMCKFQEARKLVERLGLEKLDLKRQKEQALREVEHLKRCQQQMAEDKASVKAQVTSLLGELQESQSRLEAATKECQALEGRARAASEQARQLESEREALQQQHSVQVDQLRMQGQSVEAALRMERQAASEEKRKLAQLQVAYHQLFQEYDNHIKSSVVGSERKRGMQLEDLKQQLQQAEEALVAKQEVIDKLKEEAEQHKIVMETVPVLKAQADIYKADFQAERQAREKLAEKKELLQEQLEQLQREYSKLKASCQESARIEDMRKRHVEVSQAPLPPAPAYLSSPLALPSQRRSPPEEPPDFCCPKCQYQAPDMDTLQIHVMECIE

- binding: binds
Substance: RAP-2 (RIP-associated protein-2), full-length (from UniProt Q9Y6K9 1-419)
